Results from paper doi:10.1101/2023.09.13.557663.

Target: wtEGFR-TurboID (transient, HEK293T) (UniProt P00533)
Assay: proximity labelling

| Substance | binding |
| --- | --- |
| ARPC1B (from UniProt O15143 1-372) | binds |
| MYO6 (from UniProt Q9UM54 1-1294) | binds |
| Gab2 (from UniProt Q9UQC2 1-676) | binds |
| deubiquitinase BRCC3 (from UniProt P46736 1-316) | binds |
| STAT2 (from UniProt P52630 1-851) | binds |
| MAP4K5 (from UniProt Q9Y4K4 1-846) | binds |
| VPS37A (from UniProt Q8NEZ2 1-397) | binds |
| STAM (from UniProt Q92783 1-540) | binds |

Results are given in words; binding and its absence hold for the method and conditions named. In cells and extracts the contact can be indirect. A yes stands for co-enrichment or nearness to the bait. Other partners may have been found.
